Experimental data: patent US20250282881A1
Positions count from the first letter of the chain named. These are yes or no findings as the source states them, for the method shown. Some results given as binding are weak or reduced against the parent protein; the word gives no strength. For some of these results: Tags and fused reporters may be left off the sequences shown.

Assays:
[1] = biological target: T1, recombinant human OX40/His fusion protein (Novoprotein, CB17) (human) (UniProt P43489); assay: BLI (Octet RED96), off-rate ranking
T1 sequence: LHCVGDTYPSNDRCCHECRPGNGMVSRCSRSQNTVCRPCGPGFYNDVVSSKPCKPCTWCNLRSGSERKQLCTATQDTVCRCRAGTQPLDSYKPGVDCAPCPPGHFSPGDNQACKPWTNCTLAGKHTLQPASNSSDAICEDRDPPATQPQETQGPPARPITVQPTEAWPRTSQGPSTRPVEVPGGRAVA

ΔCRD1 (human) = biological target: T2, ΔCRD1 (human) (UniProt P43489); assay: ELISA, OX40 variant coated at 1 µg/ml, HRP-labeled secondary antibody, OD 450 nm
T2 sequence (truncated extracellular domain, looked up): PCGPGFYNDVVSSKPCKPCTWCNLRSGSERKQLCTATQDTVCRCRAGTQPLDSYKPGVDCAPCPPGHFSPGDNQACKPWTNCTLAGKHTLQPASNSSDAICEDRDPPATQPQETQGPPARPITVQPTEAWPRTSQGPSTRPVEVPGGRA

ΔCRD1-2 (human) = biological target: T3, ΔCRD1-2 (human) (UniProt P43489); assay: as above
T3 sequence (truncated extracellular domain, looked up): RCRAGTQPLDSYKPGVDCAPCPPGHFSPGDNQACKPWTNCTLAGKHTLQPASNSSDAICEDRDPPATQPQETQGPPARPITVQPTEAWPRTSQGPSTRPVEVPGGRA

B1: HuEM1007-044-16 (antibody, human IgG1, kappa, L234A L235A, V domains shown)
VH: EVQLQQSGAEVKKPGSSVKVSCKASGHAFSSSWMNWVKQRPGKGLEWIGRIYPGDEITNYNAKFKDKATLTADKSTSTAYMELSSLRSEDTAVYYCARDLLMPYWGQGTLVTVSS
VL: DIVMTQTPLSLPVTPGEPASISCRSSKSLLYSNAITYLYWYLQKPGQSPQLLIYQMSNLAPGVPDRFSSSGSGTDFTLKISRVEAEDVGVYYCAQNLELPFTFGQGTKLEIKR
**Q.** How did the binding [1] turn out when B1 was run?
**A.** binds

**Q.** And the binding (ΔCRD1 (human))?
**A.** binds

**Q.** And the binding (ΔCRD1-2 (human))?
**A.** binds

B2: EM1007-mAb044c-11 (antibody, human IgG1, kappa, L234A L235A, V domains shown)
VH: QVQLQQSGPELVKPGASVTISCKASGHAFSSSWMNWVKQRPGKGLEWIGRIYPGDEITNYNAKFKDKATLTADKSSSTAYMQLSSLTFEDSAVYFCARDLLMPYWGQGTLVTVSA
VL: B1 VL with P8A, L9F, L11N, P15L, E17T, P18S, Q50H, K79R, V90I, Q105S
**Q.** How did the binding [1] turn out when B2 was run?
**A.** binds
